This note sets out measurements from paper PMC11000389.

The exact form of at least one protein or probe is not confirmed. A negative result means that nothing was seen under these conditions. Where a protein sequence is shown, tags need not be part of it.

The data set addresses T1, MtrA (UniProt Q82DB9).
T1 sequence (looked up, limits assumed): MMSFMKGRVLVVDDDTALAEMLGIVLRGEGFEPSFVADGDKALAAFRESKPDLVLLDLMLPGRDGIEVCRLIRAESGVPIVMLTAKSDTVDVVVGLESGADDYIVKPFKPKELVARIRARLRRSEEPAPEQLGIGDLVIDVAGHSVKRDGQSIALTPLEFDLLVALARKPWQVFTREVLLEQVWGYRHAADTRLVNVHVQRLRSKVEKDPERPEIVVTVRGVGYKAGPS
Put plainly: EMSA. The settings on record: 3 or 6 ug MtrA, 50 ng probe; EMSA kit buffer (composition, pH, temperature not given), 20 uL, 50 ng Cy5 probe, 3-6 ug MtrA, 6% native PAGE; recombinant protein; label: Cy5 5' end; probe letters rebuilt from the primers and the genome. On the technique in general: In EMSA bound probe runs differently from free probe, usually more slowly.

For the sequence “AGCCAGTGGCGATAAGCATTCCGCCCTCGGCGACGAGCAGTTTCACCGTGCCGGCCGCGCATTCGGTAAGGGCCAGCCGCAGCGCGCGGAACTGTGTTTCCCGGTCGACGAGCGTGAGTTCTTCTGGTTTCCGAGGGGGGTGCAGACAGGAAACTCCCTGCATGATGTTCTTATTTCTCCTTTTTCCAAGAAAGCGTGTCTCGGGGATTTCGATTGCTTGAGCAAAAGCGGTCGCGGCCGTGCGGGCTGGGTTGATCAGCATCAGAGGTGATGGTCAGTGTTATGAATTTGCCCTGGTGGGCGGGGTAGTGTCAAGGTCGCTGACTTTGATGATTAACTGATGATCGTGGGATTCTGAGGTGGTGTTCGCGAGGGTGAAGGAGTTCCTTCCTGGAGACATCCGTGCCCCGGATGGCGGTCCACAATTCACGAGTGGGATGCGCAGTGGGTCGCGTGCTGCAACACCGAATGGAATACCGGGTGACCGGTATGTACTTATCGCCACTGGCT (double strand) [aveR upstream region (PaveR)]”, the binding result was “binds”.
On to “AGCCAGTGGCGATAAGGGGAAAGAAGGACTCGGGGTCGGTCTGGGCGCACAGTGCGCGCTCCTGCCAGCCGAGTTCCTCGTCCGCGTCGTCGACCAGCAGTTGCTGCACCAGCTCGGTCATGTGCGCCCCTCGTCTGTCTTCGCGTCCCCGTGATGCTGTCGTTACCGATTTCGGCTGAACGACACGAGTGAAATTACAAGTGTGCCGATCCGCGCCAGTCAAGCCGAGATCTGCTATTGAGCCCCTTATTCACTCTGCGGAACCAAGGCTATGCGGAAAGTGTTCAAATCGGGATAAACGCCTACAGCCATCGGTGACCACAAGAGCCCAGGTCGGACCTCCAGCCCTCCACAGGGAAGGACGCCCGTATGTTCGATCTCGTTCCGACGCGAACATCGAAGCGAACCGGATCACATTCGGATCACGGAGCCGCCACGAGGTTTGCGCGCCCGGTTGTGCGCCATGTGTCCCCGGCGGCTCCTGAACAAACCTTTCGCCAGCGAGATGAACCGGATGAGGTGAAACACCTCTCACATACCGGACACCAAGTTGACAGCGGAAGTGTGAACCGATGTCCTTGTGGGCATGCTCGCGAACTTGGCACTCACCTCGACCCGCACCGCCGGGTCCCACGGTGCTGCCCGCGCTCGCTGTAGCTGTTGCTGTTCCAGCTGTTGAGCCGTACCGCGCTCCGGCTGCCTCGCCGCCACTGAGGCGAATGACCGCCCCCACCCGGGCACCCCTCCCCGTCCGCAACCCGGACGGTCCTGGTCCGCGACACCCCAGCACCCCCACGCCGAGGAACCACCGCACCCCTTATCGCCACTGGCT (double strand) [whiB promoter]”, for which the binding result is on record as “binds”.
Take “AGCCAGTGGCGATAAGAGACCAGTCGCGTCGGAGCCTCCGCGGCCGGATGGAAACGCCGGAGCCAGTTGTCGCTCGTCTGAACACTGGTCATCGCGCTGCAGCCTCTGCCTTTCGGAGTGGATCAACTGGATCAACTTGGTGTCCACGAAGCTGTCAGCCGGACCCGCACCGGACAACCCCCATCAGCCCCTATGCCCGGCGACGGCAGCCCGTGTCCCACCATCGAGCGGCTGCCTGTATCGCATGATCGCCGGTAGCCTCCTGGGCCTCAGGTCAGGGTCCTGCTCGAGCGCCCGCCGCTCACGCACGAGGGAGTGTCGACTGATCGATGATGCCTACGACGGCCGAGCCCGCACCCGTCCAGTCCGACAGCAACAGCAGTGCTCCCCTCCACACCGAACTGGGCAGGACCCGGCTGAGGATCAGCCGACTGGCGCTCGGAACGGTCCTTATCGCCACTGGCT (double strand) [aveBVIII upstream region (PaveBVIII)]”: the binding result is reported as “binds”.
The entry for “AGCCAGTGGCGATAAGAAGGGCGCTCGAAGGCCCGTCTGTTCGGACGGCGGCCGGGTTCGCCACGCGGCTGCGAGAGCTGATGCTGGTGCAGTGGCCGTTCGGCGGCGAGCGGTATCTGGCCGCCGCGGCCCGGGTGGTCGCCCAACCCGTGGGCAGTGCACTGATGTTGTCGCTGACCGCTCTGCTCTGCGCATATCTGCTCACGACCCTGCGTAGCAGGGTCCGATGACGACCGTCCGAGGGCTTCCGGTCCTGTCGTGAGCGCAACTTCCCGGAGAACGCCCATTTCTTTCCGATAAGGCGTCAATTGCGACGGGGTGAGCGATCACCCTTTCGTGTGCTTTTCACCAAAGACCTCAAGGGCGTTGGAAGCGACGCCGACAAAGGATCCGTGAGTACCCTTGCGCACACCATGATGACCGCCGCCCGCTCCGCCGACTCCGGCCTGACCGGACCGGGCGAACTCGACCGCTACCCCTACGCCGAGGCCTCTGCCGCCGACCGCGTCGGCATTCCCGCGCTTATCGCCACTGGCT (double strand) [whiH promoter]” is “no binding”; for “GTGGCGATAAGGTGACGTCGCCCCGCCTGGGTAACGACACGCCATCCCCACAATCGCGATCGGCTCCTGCTCACGCTCGACCACCTCGTACAGGCGACGGCGAGTGCGGTCCAGGTCCGCAGTGACGCGCTTGAGGTATTCCAGGAGCTTCGCTTCATTCGCCAATTGCATTCACGTCCTAGCAGGGCCCAGCGGATACGGGCGGAGTGGCAGGCGTCCGGTTCAGGACAGGCCGAGGTCGTTGTCAATGAATTTGAAAATCTCAGCCTCTGTTGCCGATGTGAACTTCTCGTCGTCATCAGCGCTTTCGGCTGTCGGATGCTGGGGTGCGTTCCACCTCAACATGAGTGACTTCTTATCGCCACTGGCT (double strand) [aveA1-aveA2 intergenic region]” it is “binds”.
For “AGCCAGTGGCGATAAGCTACTCCTTGATGTTCCAGGGCATCGCGAAGCCGAACTTCCAGACGTAGACGGCCATAAGAGCGGCGATGATCACGAGCCCGACGGTGGTGAGGATGATGTTGCGGCGCCGCACCCTGGGGTCGAGCGCACGCTGGGTCGCCTCGGTGACCTTGCGCTTCGTCCAGCGGAGCACCAGCTGGGCCCAGACGAACTCCGTCGCCCAGATCGCCATGCCTCCGAAGATCACCAGCCAGCCCGGACCGGGCAGCGGAAGCATGATCACGCCCGCGACGACGACCGCGAGCCCCACGATGAAAACGCCCACCTGCCAGCTCAGGTGCAGCGCGCGACGCGCCTTGATGAATTTCGGCGCCCTCGAGCCGAGCCCCCGCTCGGCGTTCGTTTCGTCAGCGGCCACGGCGACCTCGCCCGGCTCGTCACTCCCCGTATTCATACAACAAACCCTACCGGAGGGAAACCAGTCACCGGAATGGTCGTACCTCGCGAACGATCTCTCGGCCGGATGAGGTACCTAAAGACACGCAAAACACTCAGAGGGGTTTACAACGGCACCGTAGGTGGCATGTCGATTTCGCCGACGTGCGAATCCCCGAGCGCACACTGAGCGAAAGGCCCTGGCGCTTATGAACACCACGGTCAGCTGCGAGCTGCACCTGCGCCTCGTTGTGTCGAGCGAGTCCCTTATCGCCACTGGCT (double strand) [ssgC promoter]”, the binding result is recorded as “binds”.
